# Measurements reported in patent EP0003461A1, “Aminoalcohol derivatives of ortho-hydroxy-methyl cinnamate, process for their preparation and medicines containing them” (LIPHA, LYONNAISE INDUSTRIELLE PHARMACEUTIQUE, priority 1978, dated 1979).
# The name of at least one read-out is uncertain.
# System: récepteurs bêta-1
# Experiment: Inhibition of isoprenaline-induced tachycardia in the anaesthetised, bivagotomised dog
# Type: in vivo, chien
# Settings: dog anaesthetised with pentobarbital, isoprénaline 0,4 µg/kg/I.V., beta-1 blockade
# Protocol: […]'action sur […] tension artérielle et du rythme cardiaque du […]é au pentobarbital et bivagotomisé recevant des injections […] (0,4 μg/kg/I.V.). L'hypotension provoquée par l'isoprénaline est due à une stimulation des récepteurs bêta-2 qui […] une vasodilatation. La […] produite par l'isopré- naline est due à une stimulation des récepteursbêta-1 cardiaques oui […] une accélération de son rythme de contraction. Dans l'inhibition […] visualisant un effet de blocage des récepteurs bêta-1, on a déterminé la dose efficace 50 en mg/kg/I.V.
substance,measurement,value
trans ortho [(acétamido-4 phénéthyl) amino-3 hydroxv-2 propoxy] cinnamate de méthyle [Composé exemple 2],"dose efficace 50 (DE 50), inhibition de la tachycardie à l'isoprénaline","0,085 mg/kg/I.V."
